Our source for the isolated yield, isolated mass and conjugation yield values is patent publication US7989417B2 (Bracco Imaging S.p.A., priority 2003, dated 2011).

The nature of the data set: general procedure: Fmoc solid-phase peptide synthesis; Rink Amide-Novagel HL resin (0.6 mmol/g); HBTU/DIEA; HOBT/DIC. Conditions: for isolated yield / isolated mass: whole synthesis; for isolated yield: overall; for isolated mass: scale 0.3 mmol; for conjugation yield: conjugation step.

“N-[(3β,5β,7α,12α)-3-[[[[[4,7,10-Tris(carboxymethyl)-1,4,7,10-tetraazacyclododec-1-yl] acetyl]amino]acetyl]amino]-7,12-dihydroxy-24-oxocholan-24-yl]-L-glutaminyl-L-tryptophyl-L-alanyl-L-valyl-glycyl-L-histidyl-L-leucyl-L-methioninamide”: the isolated yield turned out to be 4% and the isolated mass was 3.6 mg. In the same order, the values of “N-[(3β,5β, 12α)-3-[[[[[4,7,10-Tris(carboxymethyl)-1,4,7,10-tetraazacyclododec-1-yl]acetyl]amino]acetyl]amino]-12-hydroxy-24-oxocholan-24-yl]-L-glutaminyl-L-tryptophyl-L-alanyl-L-valyl-glycyl-L-histidvl-L-leucvl-L-methioninamide” are 9% and 12.8 mg. Take “Pyr-His-Trp-Ser-Tyr-DLys(DOTA-Gly-Adca3)-Leu-Arg-Pro-Gly-NH2”: the conjugation yield was 68%. Still for that read-out and setting: with “Pyr-His-Trp-Ser-Tyr-DLys(H-Gly-Adca3)-Leu-Arg-Pro-Gly-NH2” the figure was 41%.
